Among the data in paper PMC7862700 are binding signal values, retold here.

Only a part is listed here, and it is no random draw. At the low end of the ranking the order means little.

For this experiment, the target named is T1, ETV3 (UniProt P41162-2).
T1 sequence: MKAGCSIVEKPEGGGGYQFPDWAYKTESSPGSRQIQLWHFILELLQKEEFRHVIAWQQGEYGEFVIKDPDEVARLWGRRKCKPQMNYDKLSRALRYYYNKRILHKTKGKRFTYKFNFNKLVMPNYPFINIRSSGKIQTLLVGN
In words: DAPPL (digital affinity profiling via proximity ligation, sequencing). The note with it: 10 mM Tris-HCl pH 7.5, 50 mM NaCl, 1 mM DTT, 4% glycerol, room temperature, 30 min; GST-TFs on glutathione beads, 16-mer random dsDNA library, 0.1% …; high values mean tight binding; double strand, one strand shown; scale: fold enrichment (6-mer frequency, TF over GST control).
In turn, TGCTTC displayed a binding signal of 2.21.

As to ATCATT, the binding signal is 0.991.

Turning to TGGCCT, the binding signal came to 1.35.

In the case of TAATGA, the binding signal stood at 1.1.

CTAGCT showed a binding signal of 1.24.

Sequence CCTACG displayed a binding signal of 1.38.

With TACTAG, the binding signal was 0.973.

Take TTATTT: the binding signal was 1.41.

AATTGT: the binding signal turned out to be 1.31.

In the case of CATACT, the binding signal came to 1.36.

The sequence GGGCCT registered a binding signal of 1.21.

Consider GAAGCT, for which the binding signal was found to be 1.75.

Turning to ATTCTG, the binding signal was 1.26.

The sequence ACTTTT returned a binding signal of 1.31.

CACTTA: the binding signal is 1.24.

The sequence CACTCG yielded a binding signal of 1.09.

TCGCGC: the binding signal was determined as 0.975.

AGCAGC returned a binding signal of 1.08.

CGTAAT: the binding signal was found to be 1.19.

Turning to CTTACC, the binding signal turned out to be 1.22.

On to TGTGAC, for which the binding signal was 1.17.

For TGTTAA, the binding signal stood at 1.16.

On to ACACGA, for which the binding signal amounted to 0.997.

GCTGTA came in with a binding signal of 1.08.

Regarding GTCCAC, the binding signal came to 0.992.

The sequence CATATA displayed a binding signal of 1.09.

With TCTCTA, the binding signal turned out to be 1.3.

In the case of GATGAA, the binding signal amounted to 1.11.

TAGGCT returned a binding signal of 1.14.

In turn, TAACTC returned a binding signal of 1.25.

On to CTATAC, for which the binding signal turned out to be 1.24.

Sequence GCTCCT showed a binding signal of 1.37.

As for AATAAG, the binding signal is 1.29.

Sequence TATCGT registered a binding signal of 1.15.

The sequence CTAGGT yielded a binding signal of 1.14.

Regarding ATCACC, the binding signal amounted to 1.12.

CGATTC displayed a binding signal of 1.23.

With CTATTC, the binding signal is 1.33.

On to TTCAGC, for which the binding signal came to 1.32.
